In article PMC5861120, “Architecture of the Saccharomyces cerevisiae NuA4/TIP60 complex” (Nature Communications, 2018) one finds binding data, which are given here for one molecule.

These are yes or no findings as the source states them, for the method shown. In cells and extracts the contact can be indirect. Here binding means that the protein was enriched with, or labelled near, the bait; the list need not be complete. For some assays here: A no says only that the protein was not detected with the bait.

The target in assay [1] is T1, Epl1 used as the handle of tandem affinity purification (S. cerevisiae) (UniProt P43572).
T1 sequence: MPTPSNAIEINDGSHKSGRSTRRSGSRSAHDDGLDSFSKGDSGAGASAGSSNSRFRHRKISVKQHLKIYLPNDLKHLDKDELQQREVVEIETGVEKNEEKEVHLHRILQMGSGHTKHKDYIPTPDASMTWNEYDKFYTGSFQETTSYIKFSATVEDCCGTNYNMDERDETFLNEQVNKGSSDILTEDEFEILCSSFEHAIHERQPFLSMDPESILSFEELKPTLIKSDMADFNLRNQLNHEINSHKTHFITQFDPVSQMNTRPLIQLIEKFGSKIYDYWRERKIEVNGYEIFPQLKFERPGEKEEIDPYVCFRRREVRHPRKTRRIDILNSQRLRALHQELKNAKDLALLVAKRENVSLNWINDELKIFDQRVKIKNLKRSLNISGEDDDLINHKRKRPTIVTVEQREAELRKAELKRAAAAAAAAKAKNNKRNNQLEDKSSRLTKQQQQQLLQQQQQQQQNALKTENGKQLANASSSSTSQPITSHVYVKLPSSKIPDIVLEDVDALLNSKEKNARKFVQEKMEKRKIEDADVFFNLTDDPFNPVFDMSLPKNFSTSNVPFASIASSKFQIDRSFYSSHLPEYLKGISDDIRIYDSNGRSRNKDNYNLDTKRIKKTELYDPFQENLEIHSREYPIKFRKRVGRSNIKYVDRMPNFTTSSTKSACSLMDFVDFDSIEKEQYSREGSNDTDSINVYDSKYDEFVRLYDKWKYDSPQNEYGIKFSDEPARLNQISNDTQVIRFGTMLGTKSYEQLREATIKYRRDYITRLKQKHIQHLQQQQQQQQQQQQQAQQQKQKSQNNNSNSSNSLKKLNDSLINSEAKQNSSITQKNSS
As to the kind of experiment: affinity purification with mass spectrometry; NuA4 purified by TAP from yeast with wild type Eaf1; mass spec data in Supplementary Table 2.

For assay [2], the target named is T1, Epl1 used as the handle of tandem affinity purification (S. cerevisiae). The experiment in a line: condition: only NuA4 from cells whose Eaf1 is mutated in the SANT domain; affinity purification with mass spectrometry; NuA4 purified by TAP from yeast whose Eaf1 is mutated in the SANT domain; mass spec data in Supplementary Table 2.

B1: Yap1 transcription factor (protein, UniProt P19880 1-650)
chain: MSVSTAKRSLDVVSPGSLAEFEGSKSRHDEIENEHRRTGTRDGEDSEQPKKKGSKTSKKQDLDPETKQKRTAQNRAAQRAFRERKERKMKELEKKVQSLESIQQQNEVEATFLRDQLITLVNELKKYRPETRNDSKVLEYLARRDPNLHFSKNNVNHSNSEPIDTPNDDIQENVKQKMNFTFQYPLDNDNDNDNSKNVGKQLPSPNDPSHSAPMPINQTQKKLSDATDSSSATLDSLSNSNDVLNNTPNSSTSMDWLDNVIYTNRFVSGDDGSNSKTKNLDSNMFSNDFNFENQFDEQVSEFCSKMNQVCGTRQCPIPKKPISALDKEVFASSSILSSNSPALTNTWESHSNITDNTPANVIATDATKYENSFSGFGRLGFDMSANHYVVNDNSTGSTDSTGSTGNKNKKNNNNSDDVLPFISESPFDMNQVTNFFSPGSTGIGNNAASNTNPSLLQSSKEDIPFINANLAFPDDNSTNIQLQPFSESQSQNKFDYDMFFRDSSKEGNNLFGEFLEDDDDDKKAANMSDDESSLIKNQLINEEPELPKQYLQSVPGNESEISQKNGSSLQNADKINNGNDNDNDNDVVPSKEGSLLRCSEIWDRITTHPKYSDIDVDGLCSELMAKAKCSERGVVINAEDVQLALNKHMN
As for B1, the binding entry in assay [1] is recorded as “binds”; in assay [2], “no binding”.
